From publication doi:10.1101/2021.05.09.443321 come the findings set out here.

By UniProt entry, the sequences of proteins in these tests, tags left out.
UniProt P63017, whole entry: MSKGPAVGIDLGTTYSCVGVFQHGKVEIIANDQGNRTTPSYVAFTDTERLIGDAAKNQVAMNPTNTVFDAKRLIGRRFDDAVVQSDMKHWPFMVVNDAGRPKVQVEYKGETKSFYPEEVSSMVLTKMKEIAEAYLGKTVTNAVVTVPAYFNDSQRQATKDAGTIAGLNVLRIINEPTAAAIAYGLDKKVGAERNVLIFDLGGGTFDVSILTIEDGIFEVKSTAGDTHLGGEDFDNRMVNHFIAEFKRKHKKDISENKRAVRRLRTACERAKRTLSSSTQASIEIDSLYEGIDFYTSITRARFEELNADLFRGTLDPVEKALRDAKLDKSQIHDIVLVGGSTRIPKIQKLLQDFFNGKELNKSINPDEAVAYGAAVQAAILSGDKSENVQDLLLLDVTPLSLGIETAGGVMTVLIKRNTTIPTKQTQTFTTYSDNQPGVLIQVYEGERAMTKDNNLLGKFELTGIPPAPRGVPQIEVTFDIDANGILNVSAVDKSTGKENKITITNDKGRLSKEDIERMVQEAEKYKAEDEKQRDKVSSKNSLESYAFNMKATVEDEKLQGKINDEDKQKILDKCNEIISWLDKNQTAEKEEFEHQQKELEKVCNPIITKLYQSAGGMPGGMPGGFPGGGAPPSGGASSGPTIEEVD
UniProt P25322, whole entry: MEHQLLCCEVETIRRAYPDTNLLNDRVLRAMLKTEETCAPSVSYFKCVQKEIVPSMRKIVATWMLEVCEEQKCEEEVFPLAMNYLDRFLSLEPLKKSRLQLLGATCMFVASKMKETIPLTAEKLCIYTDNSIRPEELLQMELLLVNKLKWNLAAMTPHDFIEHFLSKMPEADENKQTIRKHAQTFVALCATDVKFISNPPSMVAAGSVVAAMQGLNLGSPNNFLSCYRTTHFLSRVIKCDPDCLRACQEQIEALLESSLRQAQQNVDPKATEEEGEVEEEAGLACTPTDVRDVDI

These are yes or no findings as the source states them, for the method shown. Binding seen in cells or lysates may run through a third protein. Some results given as binding are weak or reduced against the parent protein; the word gives no strength. Tags and fused reporters may be left off the sequences shown.

In the experiment the target is Hsc70-HA (UniProt P63017). Briefly: co-IP.

Turning to “cyclin D1-Flag (from UniProt P25322 1-295)”, the binding entry is “binds”.

B1: CDK4-Flag (protein, UniProt P30285 1-303)
chain: MAATRYEPVAEIGVGAYGTVYKARDPHSGHFVALKSVRVPNGGAAGGGLPVSTVREVALLRRLEAFEHPNVVRLMDVCATSRTDRDIKVTLVFEHIDQDLRTYLDKAPPPGLPVETIKDLMRQFLSGLDFLHANCIVHRDLKPENILVTSNGTVKLADFGLARIYSYQMALTPVVVTLWYRAPEVLLQSTYATPVDMWSVGCIFAEMFRRKPLFCGNSEADQLGKIFDLIGLPPEDDWPREVSLPRGAFAPRGPRPVQSVVPEMEESGAQLLLEMLTFNPHKRISAFRALQHSYLHKEESDAE
For B1, the binding entry is “binds”.
